These results are taken from patent publication US20240216509A1.

Protein sequences, listed by entry. Tags and fused reporters are not part of them. Lines headed by an entry give the natural chain unless they say otherwise; changes in a name come on top.
UniProt Q15116: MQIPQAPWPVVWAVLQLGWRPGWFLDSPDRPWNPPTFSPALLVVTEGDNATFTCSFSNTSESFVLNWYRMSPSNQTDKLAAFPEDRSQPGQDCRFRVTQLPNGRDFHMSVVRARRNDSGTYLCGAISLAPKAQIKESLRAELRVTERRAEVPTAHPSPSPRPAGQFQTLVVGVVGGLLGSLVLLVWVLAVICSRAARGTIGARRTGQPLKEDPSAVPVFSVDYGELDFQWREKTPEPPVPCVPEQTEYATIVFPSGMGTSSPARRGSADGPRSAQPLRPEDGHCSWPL
UniProt P01732: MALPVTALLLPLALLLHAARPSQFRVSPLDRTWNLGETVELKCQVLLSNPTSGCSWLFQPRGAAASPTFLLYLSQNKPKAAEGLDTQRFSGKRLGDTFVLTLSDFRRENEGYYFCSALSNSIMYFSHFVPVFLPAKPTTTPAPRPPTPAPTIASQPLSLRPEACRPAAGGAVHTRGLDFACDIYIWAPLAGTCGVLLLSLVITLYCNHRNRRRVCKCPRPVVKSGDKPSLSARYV

These are yes or no findings as the source states them, for the method shown. Some binding calls cover weakened binding; strength is not graded here.

This experiment has as its target full length human PD-1 expressed on the surface of transfected Drosophila S2 cells or Raji cells (human) (UniProt Q15116). Briefly: co-culture of CAR NK-92 with PD-1-expressing S2 or Raji cells; recognition inferred from degranulation and killing.

“PD-L1 CAR (2nd generation CAR, PDL1-CD28-CD3ζ) expressed on NK-92 cells (from UniProt P01732 138-182; P10747 153-220; P20963 52-164)”: the binding result is listed as “binds”.
